Assay results from PubChem BioAssay AID1794845 (National Center for Advancing Translational Sciences (NCATS), 2023).
Fewer than 10 of roughly 6,900 compounds were called active. Calls come from the whole dose curve; as a rule, active = well fitted curve in the direction sought with a large enough effect; inconclusive = small, poorly fitted or top-dose-only effect, or another doubt; inactive = no such curve, though single readings can be large or run the other way. This is one part of the list.

Sequences of proteins named here, by UniProt entry; tags and fusion partners are left off. A change or cut given only in a name is not applied to a line headed by its entry.
UniProt C7C422: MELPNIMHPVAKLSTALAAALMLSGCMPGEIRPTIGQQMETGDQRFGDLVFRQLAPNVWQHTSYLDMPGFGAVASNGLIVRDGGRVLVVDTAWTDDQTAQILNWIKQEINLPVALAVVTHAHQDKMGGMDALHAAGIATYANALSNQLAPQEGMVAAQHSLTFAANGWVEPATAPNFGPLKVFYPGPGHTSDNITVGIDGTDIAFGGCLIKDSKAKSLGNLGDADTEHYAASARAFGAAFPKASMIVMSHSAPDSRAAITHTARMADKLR

These compounds were tested against Metallo-beta-lactamase type 2 (Klebsiella pneumoniae) (UniProt C7C422) (assay: qHTS to identify inhibitors of the New Delhi Metallo-beta-lactamase (NDM): primary screen against the NCATS Gemini Collection). Details: NDM-1 enzyme, meropenem hydrolysis, absorbance 300 nm; at 38.4 µM (top of the series) unless noted.
Summary of the method: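 Meropenem hydrolysis (50 uM final) by 2 nM NDM-1 read as 300 nm absorbance after 30 min, following >30 min compound–enzyme preincubation in HEPES pH 7.0 with 1 uM ZnSO4 and 0.01% Tween20.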
Note: % of control where 0% means no effect.

Activity % (negative = inhibition), inactive:
COc1cccc(N2C(=O)NC(=NC3CCCCC3)C23CCCN([S+](=O)([O-])c2cccs2)C3)c1 (centres undefined) -1.53%
O=C(c1ccsc1)N1CCC2(CC1)CN(c1ccncn1)CC2CO (centres undefined) 0.264%
O=C1CCCCC(Cc2cccnc2)(C(=O)NCC2CC2)N1 (centres undefined) 0.264%
COCCOCc1nc(C2CCCN2C(=O)Cc2cccc(F)c2)no1 (centres undefined) -2.95%
O[C@H]1CC[C@@H](Cc2cc(-c3ccc(F)cc3)on2)O[C@@H]1CNC1CCCCC1 -3.81% [at 57.5 µM]
Cc1[nH]c2ccccc2c1CN1CCc2nc(N3CCN(C)CC3)[nH]c(=O)c2CC1 -0.788%
N#Cc1cccc(CN2CC[C@H](c3nc4ccccc4o3)C2)c1 -0.362% [at 57.5 µM]
COCc1nc(NCCCN2CCOCC2)cc(C2CC(N)C2)n1 (centres undefined) 2.39%
c1cc(-c2nc(C3CCOC3)nn2C2CCCCC2)co1 (centres undefined) 17.7%
COc1ccc(-c2nc3cc(C(=O)NCC(C)C)ccc3o2)cn1 4.69% [at 57.5 µM]
COC1C(=O)N(CC2CC2)C12CCN(S(=O)(=O)c1ccc3c(c1)OCCO3)CC2 (centres undefined) -0.845%
CC(C)C1=NOC2(CCCN(C(=O)c3ccccn3)C2)C1 (centres undefined) 2.47% [at 57.5 µM]
O=C(c1cnc2c(c1)CCCC2)N1CCCn2nc(CO)cc2C1 6.35%
CN(Cc1cccc(C(F)(F)F)c1)Cc1nc(-c2ccccc2)no1 17.1%
O=C(NC1CCCCCC1)c1nnn2cc(-c3ccccc3)[nH]c(=O)c12 8.42%
O=C1CCN(Cc2cccc(F)c2)CCCCCCN1 2.42%
Cc1nnc(-c2cc(-c3cnn(C)c3)ccn2)n1-c1ccccc1 3.31% [at 57.5 µM]
C=CCCC(=O)N1c2cccc3c2[C@@H](C[C@H]1C(N)=O)CN(c1ccccc1)C3=O 8.38% [at 16.1 µM]
CC1(C(=O)N2CCC(c3ccccc3)CC2)CCc2cnc(Nc3ccncc3)nc21 (centres undefined) 24.2% [at 57.5 µM]
CCn1c(CN2CCN(c3nc(C)cnc3C)CC2)nnc1C1CC(N)C1 (centres undefined) -4.23%
COC(=O)[C@H](CC1CCCCC1)NC(=O)[C@@H]1CN(C(=O)c2ccc(N(C)C)cc2)CCN1C(C)=O 11.2%
O=C(NCCN1C(=O)C2(CCCCC2)C1c1ccccc1)NCc1ccccc1 (centres undefined) -0.527%
CCc1noc(-c2cn(C3CCN(C(=O)COc4ccccc4)C3)nn2)n1 (centres undefined) 3.62%
COc1cccc([C@@H]2CCN(Cc3cn[nH]c3C(=O)O)C[C@H]2O)c1 0.625%
COc1cccc(CN2CC[C@@](O)(C3CC3)[C@H](C)C2)c1OC 2.38%
Cc1cccc(O[C@H]2COCCN(c3nc4ccccc4o3)C2)n1 14.5% [at 57.5 µM]
c1ccc(CNc2ncc(-c3ccc(N4CCOCC4)cc3)c3c2OCC3)cc1 4.66% [at 57.5 µM]
COc1cccc(S(=O)(=O)N2CCC(c3noc(-c4ccccn4)n3)C2)c1 (centres undefined) -5.96%
C[C@@]12CO[C@@H](Cc3ccccc3)O[C@@H]1CC[C@]1(C)C2CC[C@@H](O)[C@H]1CC(=O)NCc1cc(F)cc(F)c1 (some centres undefined) 2.51%
Cc1nnc(N2CCC3(CCC(=O)N(CCCN(C)C)C3)CC2)c2ccccc12 -0.416%
CNC(=O)C1C(=O)NCC12CCN(C(=O)c1ccc(C(C)(C)C)cc1)CC2 (centres undefined) 1.45%
CN(C)c1cc(N2CCCC(NC(=O)c3cccnc3)C2)ncn1 (centres undefined) 8.65%
COc1cccc(CN2CC3(C2)NC(=O)c2ccccc2O3)c1 1.79% [at 57.5 µM]
CCCC[S+](=O)([O-])N1CC(=O)N(CCCc2ccccc2)CC(O)C1 (centres undefined) 0.416%
CN(Cc1cc(C[C@@H]2C[C@H](NC(=O)C(C)(C)C)C2(C)C)no1)c1ccccc1 -0.493% [at 57.5 µM]
c1cc2c(cc1OC1CNC1)OCO2 10.2% [at 77.1 µM]
CC1(C)[C@H](Cc2cc(CN3CCCCC3)on2)C[C@@H]1N 32% [at 77.1 µM]
CCn1c(CO)nnc1C1CC(NC(=O)c2sccc2N)C1 (centres undefined) 55.6%
CN(C)C[C@@H]1CN(Cc2ccccn2)C[C@H]1NC(=O)c1n[nH]c2ccccc12 7.43%
CCOc1ccccc1C(=O)NC1CCN(c2cc(C)cc(C)c2)C1=O (centres undefined) -5.43%
O=C1NC(=NC2CCCC2)C2(CCCN([S+](=O)([O-])c3ccccc3)C2)N1c1cccnc1 (centres undefined) -2.44%
CCN(CC)Cc1cnc2c(C(=O)N3CCCN4CCC[C@H]4C3)cnn2c1 -4.23%
Cc1c(C(C)NC(=O)c2ccc(=O)[nH]c2)cnn1-c1cccc2ccccc12 (centres undefined) 4.53%
CCOC(=O)C1CCN(C(=O)C2COC3(CCCCC3)N2C(=O)c2cc(F)cc(F)c2)CC1 (centres undefined) -0.153%
COCCn1c(COc2c(F)ccc(Cl)c2F)nnc1C1CC(N)C1 (centres undefined) -2.79%
CCc1nc(NCc2cn[nH]c2-c2ccc(Cl)cc2)c2cnn(C)c2n1 -2.24%
O[C@H]1CC[C@@H](Cc2cc(CN3CCCCC3)on2)O[C@@H]1CNCc1cccnc1 -2.83% [at 57.5 µM]
COc1cccc(CN2Cc3nc(-c4cnn(C)c4)ccc3OCC2=O)c1 5.31% [at 57.5 µM]
c1ccc(-c2n[nH]c(CC3CCNC3)n2)cc1 (centres undefined) -14.8%
CCCC1(C2CCN(C(=O)Cc3ccc(OC)cc3)CC2)NC(=O)N(CCc2cccs2)C1=O (centres undefined) 2.53%
Cc1cc(=O)n(CC(=O)Nc2ccc3c(c2)OCCO3)c(N2CCc3ccccc3C2)n1 14.2%
Cc1noc2c(-c3cccc(CO)c3)cc(-c3cccc(C(F)(F)F)c3)nc12 28.7% [at 57.5 µM]
Cc1cc(C[C@@H]2COC[C@@H]2NC(=O)c2ccc(Oc3ccccc3)o2)on1 5.18%
O=C(NCc1ccccc1)C1COC2(CCN(C(=O)c3cccs3)CC2)N1C(=O)c1ccco1 (centres undefined) -0.388%
CCOc1ccc(CN2CCCC(CCC(=O)Nc3ccccc3F)C2)cc1CO (centres undefined) -0.193%
COC(=O)[C@@H]1C[C@H](NC(=O)c2c(Cl)cccc2Cl)CN1C 10.2%
Cc1noc(C)c1S(=O)(=O)N1CCCOCCNC(=O)[C@@H]2CCC[C@@H]21 -1.51%
COCCOCC(=O)N1CCC(N2C[C@H](OC)[C@@H]2c2cccnc2)CC1 7.72%
CCc1nc(C)sc1C(=O)N1C[C@@H](CN2CCCN(C)CC2)[C@@H](CO)C1 -11.8%
CCC1(C(=O)O)CCCCC(=O)N1 (centres undefined) 25.8%
COCc1nc(C2CC(NC(=O)CN3C(=O)CN(C)C3=O)C2)cc(=O)[nH]1 (centres undefined) 3%
CCn1ncc(CN2CCCC23CCN(c2ccc(C(F)(F)F)cn2)CC3)c1C 5.27%
O=C1CC(c2ccccc2)NCCCCCCN1 (centres undefined) -4.45%
O=c1cc(N2CCOCC2)oc2c(NCC3CCOCC3)nccc12 20.6% [at 57.5 µM]
CCC(=O)N1CCc2c(C(=O)N3CCCCC3)cccc21 6.68%
CC1(C)[C@H]2CC[C@@H](CNC(=O)c3ccc4ccccc4n3)[C@@H]1C2 8.22% [at 57.5 µM]
C=CCS(=O)(=O)N1C[C@H]2OC(=O)N(CCc3cccc(Cl)c3)[C@H]2C1 -0.273%
COC1CCC(C(=O)N2CCC3(CC2)OC(=O)N(CCOc2ccccc2)C3(C)c2cccnc2)CC1 (centres undefined) 3.83%
Cc1nc(C(=O)N2CC[C@H](NC(=O)c3snnc3C)C[C@H]2C(=O)N[C@H](CC(C)C)C(N)=O)cs1 1.66%
Cc1nc(C2CC(O)C2)cc(N2CCN(c3nc4ccccc4s3)CC2)n1 (centres undefined) 9.86%
O=C(Cc1ccccn1)N1CCCC(C(=O)N2CCC(N3CCCC3=O)CC2)C1 (centres undefined) 1.86%
Cc1cc(C)cc(NC(=O)Cn2c(-c3cnccn3)nc(C)c(C)c2=O)c1 -0.0371%
CCC(CC)C(=O)N1CCC2(CC1)C(=O)N(C)c1ccccc12 2.54%
CCc1c(C)nn(CCNC(=O)c2cc(S(N)(=O)=O)ccc2F)c1C -0.662%
CN1CC2(CCOC2)N(C2CCN(C(=O)C3CCCC3)CC2)C1=O (centres undefined) 7.02%
Cc1cc2ncc(C(=O)N3CCN(c4ncccn4)CC3)cn2n1 4.18% [at 57.5 µM]
O=C(O)[C@@H]1CN(C(=O)CCCc2cn[nH]c2)C[C@H]1c1ccc2c(c1)OCO2 1.54%
COCCOC1CCN(C(C(=O)O)c2ccc(OC)c(F)c2)CC1 (centres undefined) 14.1%
COCCN1C[C@H]2CN(C(=O)C3CCC3)C[C@@]2(C(=O)O)C1 21.1%
Nc1nc(NCc2ccc(Cl)cc2Cl)cc(C2CC(O)C2)n1 (centres undefined) -1.82%
Cn1cc(CCC(=O)N[C@@H]2CCOC[C@H]2Oc2ccc(C(=O)O)cc2)cn1 36.4%
CC(C)(C)CN1CCC2(CC1)COc1ccccc1[S+](=O)([O-])N2 0.46%
CC(C)(C(=O)O)c1cnc(N2CC[C@H](CO)[C@H](O)C2)nc1N1CCOCC1 4.13%
CN1CC[C@H](N(Cc2ccccc2)Cc2ccccc2)C[C@H](O)C1 21%

Among those listed so far, 16 have sulfur:
Activity % (negative = inhibition), inactive:
COc1cccc(N2C(=O)NC(=NC3CCCCC3)C23CCCN([S+](=O)([O-])c2cccs2)C3)c1 (centres undefined) -1.53%
O=C(c1ccsc1)N1CCC2(CC1)CN(c1ccncn1)CC2CO (centres undefined) 0.264%
COC1C(=O)N(CC2CC2)C12CCN(S(=O)(=O)c1ccc3c(c1)OCCO3)CC2 (centres undefined) -0.845%
COc1cccc(S(=O)(=O)N2CCC(c3noc(-c4ccccn4)n3)C2)c1 (centres undefined) -5.96%
CCCC[S+](=O)([O-])N1CC(=O)N(CCCc2ccccc2)CC(O)C1 (centres undefined) 0.416%
CCn1c(CO)nnc1C1CC(NC(=O)c2sccc2N)C1 (centres undefined) 55.6%
O=C1NC(=NC2CCCC2)C2(CCCN([S+](=O)([O-])c3ccccc3)C2)N1c1cccnc1 (centres undefined) -2.44%
CCCC1(C2CCN(C(=O)Cc3ccc(OC)cc3)CC2)NC(=O)N(CCc2cccs2)C1=O (centres undefined) 2.53%
O=C(NCc1ccccc1)C1COC2(CCN(C(=O)c3cccs3)CC2)N1C(=O)c1ccco1 (centres undefined) -0.388%
Cc1noc(C)c1S(=O)(=O)N1CCCOCCNC(=O)[C@@H]2CCC[C@@H]21 -1.51%
CCc1nc(C)sc1C(=O)N1C[C@@H](CN2CCCN(C)CC2)[C@@H](CO)C1 -11.8%
C=CCS(=O)(=O)N1C[C@H]2OC(=O)N(CCc3cccc(Cl)c3)[C@H]2C1 -0.273%
Cc1nc(C(=O)N2CC[C@H](NC(=O)c3snnc3C)C[C@H]2C(=O)N[C@H](CC(C)C)C(N)=O)cs1 1.66%
Cc1nc(C2CC(O)C2)cc(N2CCN(c3nc4ccccc4s3)CC2)n1 (centres undefined) 9.86%
CCc1c(C)nn(CCNC(=O)c2cc(S(N)(=O)=O)ccc2F)c1C -0.662%
CC(C)(C)CN1CCC2(CC1)COc1ccccc1[S+](=O)([O-])N2 0.46%

A draw from above in order of molecular weight, low to high:
Activity % (negative = inhibition), inactive:
N#Cc1cccc(CN2CC[C@H](c3nc4ccccc4o3)C2)c1 -0.362% [at 57.5 µM]
COC(=O)[C@H](CC1CCCCC1)NC(=O)[C@@H]1CN(C(=O)c2ccc(N(C)C)cc2)CCN1C(C)=O 11.2%
COc1cccc(N2C(=O)NC(=NC3CCCCC3)C23CCCN([S+](=O)([O-])c2cccs2)C3)c1 (centres undefined) -1.53%
